This is one part of the list.
How the values were obtained:
Assay in all cases: log2 fold change, soluble protein after heating vs DMSO (PISA); higher = thermal stabilisation; K562 lysate, 10 uM; active = over 0.2 and 3.5 SD of the protein, either way, in both replicates (recomputed)
erlotinib = compound: C#Cc1cccc(Nc2ncnc3cc(OCCOC)c(OCCOC)cc23)c1 [erlotinib]
Outline: (§1)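 Following dounce homogenisation of K562 pellets in PBS pH 7.4 with 1 mM MgCl2, crude extract at 1 mg/mL protein was incubated for 30 min with 10 μM compound. Aliquots were then heated for 3 min over 48°C-58°C and pooled, NP-40 was added to 0.5% at 4°C, and soluble protein was recovered as the supernatant at 21,000xg for 90 min. Channel-sum-equalised TMTpro 16plex LC-MS/MS quantified this protein. Each value, from duplicates, is a log-two fold change in thermal stability relative to solvent controls.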

Chains of the proteins cited; added tags and fusions are not shown. Lines headed by an entry give the natural chain unless they say otherwise; changes in a name come on top.
UniProt P61018: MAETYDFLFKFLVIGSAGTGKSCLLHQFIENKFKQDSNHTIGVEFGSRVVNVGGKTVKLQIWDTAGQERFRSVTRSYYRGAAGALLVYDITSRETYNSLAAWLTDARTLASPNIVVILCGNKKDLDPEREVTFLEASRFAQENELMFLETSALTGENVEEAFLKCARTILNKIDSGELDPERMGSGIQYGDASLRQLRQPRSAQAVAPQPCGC
UniProt Q9BRP8: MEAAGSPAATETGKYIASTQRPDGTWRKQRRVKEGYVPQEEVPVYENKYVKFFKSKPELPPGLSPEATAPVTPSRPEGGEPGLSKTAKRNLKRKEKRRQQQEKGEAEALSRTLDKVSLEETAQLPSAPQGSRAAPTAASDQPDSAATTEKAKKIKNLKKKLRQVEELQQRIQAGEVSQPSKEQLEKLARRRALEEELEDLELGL
UniProt Q86YS3: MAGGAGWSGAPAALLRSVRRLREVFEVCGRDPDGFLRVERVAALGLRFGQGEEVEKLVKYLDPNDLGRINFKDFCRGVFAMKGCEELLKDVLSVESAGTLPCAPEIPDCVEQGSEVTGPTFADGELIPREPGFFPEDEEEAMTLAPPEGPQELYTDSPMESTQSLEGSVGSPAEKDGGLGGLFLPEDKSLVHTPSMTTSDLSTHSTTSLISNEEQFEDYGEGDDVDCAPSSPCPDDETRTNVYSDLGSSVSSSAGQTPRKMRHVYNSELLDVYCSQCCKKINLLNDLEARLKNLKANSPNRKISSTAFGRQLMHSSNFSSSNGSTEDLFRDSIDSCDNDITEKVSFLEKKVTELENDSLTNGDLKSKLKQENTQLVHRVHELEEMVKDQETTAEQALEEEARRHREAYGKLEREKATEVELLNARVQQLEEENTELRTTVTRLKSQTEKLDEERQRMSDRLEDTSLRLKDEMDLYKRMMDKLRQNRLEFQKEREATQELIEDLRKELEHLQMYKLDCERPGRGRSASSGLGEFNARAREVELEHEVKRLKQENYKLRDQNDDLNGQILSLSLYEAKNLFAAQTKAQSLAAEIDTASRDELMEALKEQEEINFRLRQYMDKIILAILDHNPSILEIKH
UniProt P51153: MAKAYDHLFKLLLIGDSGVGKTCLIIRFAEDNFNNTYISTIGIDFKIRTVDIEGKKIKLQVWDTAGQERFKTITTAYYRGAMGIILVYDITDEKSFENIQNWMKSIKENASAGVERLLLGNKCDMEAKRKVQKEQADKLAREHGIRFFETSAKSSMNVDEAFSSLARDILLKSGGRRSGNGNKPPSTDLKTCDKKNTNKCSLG
UniProt O75154: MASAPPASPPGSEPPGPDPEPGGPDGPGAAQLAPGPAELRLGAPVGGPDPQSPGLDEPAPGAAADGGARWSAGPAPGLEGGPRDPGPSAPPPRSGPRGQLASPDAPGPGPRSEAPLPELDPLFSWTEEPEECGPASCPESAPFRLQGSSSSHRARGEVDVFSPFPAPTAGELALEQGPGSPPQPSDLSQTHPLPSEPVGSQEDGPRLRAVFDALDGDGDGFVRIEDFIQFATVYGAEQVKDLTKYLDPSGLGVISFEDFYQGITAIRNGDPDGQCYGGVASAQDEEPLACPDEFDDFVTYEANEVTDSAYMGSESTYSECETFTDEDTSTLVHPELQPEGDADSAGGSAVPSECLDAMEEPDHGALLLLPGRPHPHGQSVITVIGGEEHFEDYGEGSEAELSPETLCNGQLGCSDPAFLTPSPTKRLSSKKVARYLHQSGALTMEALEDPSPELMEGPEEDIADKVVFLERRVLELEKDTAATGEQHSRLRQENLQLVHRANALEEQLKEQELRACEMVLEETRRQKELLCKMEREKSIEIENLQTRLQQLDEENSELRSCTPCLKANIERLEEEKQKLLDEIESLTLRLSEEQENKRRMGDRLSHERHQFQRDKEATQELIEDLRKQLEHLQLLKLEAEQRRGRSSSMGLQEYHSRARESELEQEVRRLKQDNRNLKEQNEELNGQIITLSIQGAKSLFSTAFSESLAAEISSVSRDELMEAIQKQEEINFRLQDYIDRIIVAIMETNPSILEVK
UniProt Q9Y620: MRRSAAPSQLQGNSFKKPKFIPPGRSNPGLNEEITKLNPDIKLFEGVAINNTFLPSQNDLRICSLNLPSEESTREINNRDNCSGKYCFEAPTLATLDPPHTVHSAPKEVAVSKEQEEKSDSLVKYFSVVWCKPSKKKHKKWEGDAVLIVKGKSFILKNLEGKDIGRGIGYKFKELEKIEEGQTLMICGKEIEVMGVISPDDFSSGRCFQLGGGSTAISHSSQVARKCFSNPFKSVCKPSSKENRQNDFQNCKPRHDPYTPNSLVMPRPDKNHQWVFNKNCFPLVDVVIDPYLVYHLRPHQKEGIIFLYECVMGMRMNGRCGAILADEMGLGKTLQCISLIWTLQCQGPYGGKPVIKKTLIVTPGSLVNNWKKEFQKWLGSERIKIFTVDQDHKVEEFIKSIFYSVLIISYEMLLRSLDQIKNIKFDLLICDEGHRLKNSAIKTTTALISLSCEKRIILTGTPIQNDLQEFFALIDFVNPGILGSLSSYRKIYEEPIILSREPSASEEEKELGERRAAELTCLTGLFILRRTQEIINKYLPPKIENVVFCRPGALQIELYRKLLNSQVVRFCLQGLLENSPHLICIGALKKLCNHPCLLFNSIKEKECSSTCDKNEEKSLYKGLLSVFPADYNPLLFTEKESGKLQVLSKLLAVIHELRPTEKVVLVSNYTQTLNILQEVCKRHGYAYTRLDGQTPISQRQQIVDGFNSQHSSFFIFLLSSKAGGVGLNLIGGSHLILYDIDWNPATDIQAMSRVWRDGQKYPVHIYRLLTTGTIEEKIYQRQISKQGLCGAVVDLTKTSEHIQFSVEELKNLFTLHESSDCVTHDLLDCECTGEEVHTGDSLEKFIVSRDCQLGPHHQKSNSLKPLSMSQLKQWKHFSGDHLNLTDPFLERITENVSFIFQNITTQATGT
UniProt Q9BRQ0: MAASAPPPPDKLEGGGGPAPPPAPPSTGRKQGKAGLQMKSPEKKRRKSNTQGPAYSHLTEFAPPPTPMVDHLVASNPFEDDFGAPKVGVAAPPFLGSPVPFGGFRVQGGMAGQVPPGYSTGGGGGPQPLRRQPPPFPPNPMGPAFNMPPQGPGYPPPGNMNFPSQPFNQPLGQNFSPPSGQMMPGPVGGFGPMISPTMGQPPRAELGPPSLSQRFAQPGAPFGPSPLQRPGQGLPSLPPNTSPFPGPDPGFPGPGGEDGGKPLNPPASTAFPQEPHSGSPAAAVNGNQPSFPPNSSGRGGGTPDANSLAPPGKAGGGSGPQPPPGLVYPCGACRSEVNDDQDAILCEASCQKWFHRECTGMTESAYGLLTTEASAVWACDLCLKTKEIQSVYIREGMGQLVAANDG
UniProt Q9BUV8: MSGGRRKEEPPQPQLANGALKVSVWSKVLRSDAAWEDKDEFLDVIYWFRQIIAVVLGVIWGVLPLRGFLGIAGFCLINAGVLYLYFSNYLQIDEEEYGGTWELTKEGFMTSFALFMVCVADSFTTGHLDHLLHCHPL
UniProt Q7Z5J4: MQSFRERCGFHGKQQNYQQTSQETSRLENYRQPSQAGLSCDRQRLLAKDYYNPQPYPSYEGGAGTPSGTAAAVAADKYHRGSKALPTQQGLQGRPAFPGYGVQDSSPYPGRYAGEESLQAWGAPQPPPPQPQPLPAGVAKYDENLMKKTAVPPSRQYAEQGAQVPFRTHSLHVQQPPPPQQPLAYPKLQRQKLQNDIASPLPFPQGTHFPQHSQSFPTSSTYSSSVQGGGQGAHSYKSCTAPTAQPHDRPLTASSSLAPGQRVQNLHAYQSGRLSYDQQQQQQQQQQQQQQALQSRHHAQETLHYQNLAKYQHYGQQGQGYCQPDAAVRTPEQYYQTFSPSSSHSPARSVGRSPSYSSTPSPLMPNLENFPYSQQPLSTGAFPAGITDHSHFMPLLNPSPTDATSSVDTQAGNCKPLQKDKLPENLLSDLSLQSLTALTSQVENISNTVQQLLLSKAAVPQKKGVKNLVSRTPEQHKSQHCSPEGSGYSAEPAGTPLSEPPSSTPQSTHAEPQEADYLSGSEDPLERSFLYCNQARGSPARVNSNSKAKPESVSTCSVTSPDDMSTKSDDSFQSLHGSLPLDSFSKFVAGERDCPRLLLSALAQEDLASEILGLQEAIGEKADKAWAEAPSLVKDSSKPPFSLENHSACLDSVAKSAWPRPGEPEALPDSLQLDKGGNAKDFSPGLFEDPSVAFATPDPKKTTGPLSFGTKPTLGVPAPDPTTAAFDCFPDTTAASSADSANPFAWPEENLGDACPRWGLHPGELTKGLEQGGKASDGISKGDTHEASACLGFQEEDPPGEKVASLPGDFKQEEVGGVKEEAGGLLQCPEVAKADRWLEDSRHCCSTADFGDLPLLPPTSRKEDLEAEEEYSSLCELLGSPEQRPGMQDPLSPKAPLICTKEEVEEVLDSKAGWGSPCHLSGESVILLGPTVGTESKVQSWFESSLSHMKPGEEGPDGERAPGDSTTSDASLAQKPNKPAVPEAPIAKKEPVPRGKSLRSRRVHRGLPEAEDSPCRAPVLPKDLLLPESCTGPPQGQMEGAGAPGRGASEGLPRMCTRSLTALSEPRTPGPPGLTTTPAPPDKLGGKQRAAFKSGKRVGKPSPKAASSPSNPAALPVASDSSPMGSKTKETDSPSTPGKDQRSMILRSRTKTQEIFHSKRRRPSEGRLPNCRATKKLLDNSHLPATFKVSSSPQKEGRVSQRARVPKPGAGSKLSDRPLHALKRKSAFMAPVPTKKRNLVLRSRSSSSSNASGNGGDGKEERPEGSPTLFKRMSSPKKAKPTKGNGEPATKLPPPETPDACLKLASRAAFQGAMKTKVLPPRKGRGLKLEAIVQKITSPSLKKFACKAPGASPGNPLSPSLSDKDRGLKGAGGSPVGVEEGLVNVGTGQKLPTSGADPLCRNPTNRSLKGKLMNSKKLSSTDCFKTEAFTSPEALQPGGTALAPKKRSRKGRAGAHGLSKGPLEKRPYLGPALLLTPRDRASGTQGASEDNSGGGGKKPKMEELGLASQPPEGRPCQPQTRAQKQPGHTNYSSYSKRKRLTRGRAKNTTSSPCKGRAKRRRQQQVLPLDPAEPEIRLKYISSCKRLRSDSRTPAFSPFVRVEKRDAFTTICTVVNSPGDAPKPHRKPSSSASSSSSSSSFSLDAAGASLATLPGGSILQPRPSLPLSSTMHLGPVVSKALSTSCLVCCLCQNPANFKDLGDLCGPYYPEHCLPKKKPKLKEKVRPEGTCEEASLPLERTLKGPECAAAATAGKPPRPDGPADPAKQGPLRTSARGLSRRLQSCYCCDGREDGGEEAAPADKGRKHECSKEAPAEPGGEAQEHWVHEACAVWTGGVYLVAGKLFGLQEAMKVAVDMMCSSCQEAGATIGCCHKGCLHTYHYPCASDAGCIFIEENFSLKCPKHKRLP
UniProt O95716: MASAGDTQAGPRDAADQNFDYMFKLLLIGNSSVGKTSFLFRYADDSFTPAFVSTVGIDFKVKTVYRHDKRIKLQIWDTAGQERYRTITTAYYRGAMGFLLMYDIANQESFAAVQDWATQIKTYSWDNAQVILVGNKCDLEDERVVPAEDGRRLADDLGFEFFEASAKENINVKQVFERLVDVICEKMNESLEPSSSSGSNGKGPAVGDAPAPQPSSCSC
UniProt O00194: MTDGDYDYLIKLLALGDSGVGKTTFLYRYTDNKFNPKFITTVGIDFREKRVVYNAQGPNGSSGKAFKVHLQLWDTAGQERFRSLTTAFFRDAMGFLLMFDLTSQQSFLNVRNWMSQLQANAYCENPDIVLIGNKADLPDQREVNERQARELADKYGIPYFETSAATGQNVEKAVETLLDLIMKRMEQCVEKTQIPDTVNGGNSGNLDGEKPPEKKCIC
UniProt P52306: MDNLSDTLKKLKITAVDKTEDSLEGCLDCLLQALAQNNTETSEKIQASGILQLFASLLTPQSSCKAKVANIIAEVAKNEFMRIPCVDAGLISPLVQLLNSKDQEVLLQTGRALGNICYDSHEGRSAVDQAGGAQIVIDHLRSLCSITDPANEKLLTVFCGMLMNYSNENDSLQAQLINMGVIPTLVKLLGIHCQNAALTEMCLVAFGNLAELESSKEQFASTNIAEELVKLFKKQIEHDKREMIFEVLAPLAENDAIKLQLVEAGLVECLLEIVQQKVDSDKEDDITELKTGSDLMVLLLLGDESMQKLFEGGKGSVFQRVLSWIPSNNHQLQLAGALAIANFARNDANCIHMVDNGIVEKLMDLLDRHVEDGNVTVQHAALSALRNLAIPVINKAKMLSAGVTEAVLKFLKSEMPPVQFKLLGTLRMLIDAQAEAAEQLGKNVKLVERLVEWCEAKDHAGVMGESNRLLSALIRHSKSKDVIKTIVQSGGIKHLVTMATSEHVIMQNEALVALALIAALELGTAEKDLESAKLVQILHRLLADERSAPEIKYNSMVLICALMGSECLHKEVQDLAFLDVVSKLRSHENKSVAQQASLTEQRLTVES

[1] = compound: C/C(=N\NC(=O)C1=CC(=CC=C1)S(=O)(=O)N2CCOCC2)/C3=C(C=CC(=C3)Cl)O
Outline: as §1

[2] = compound: C1=CC(=CC=C1C2=NC3=C(N2)C=C(C=C3)C(=O)N)OC4=CC=C(C=C4)Cl
Outline: as §1

[3] = compound: C1=CC2=C(C=CC(=C2)/C=C\3/C(=O)NC(=NCC4=CC=CS4)S3)N=C1
Outline: as §1

[4] = compound: C1=CC2=NC=CN=C2C=C1/C=C/3\C(=O)NC(=O)S3
Outline: as §1

[5] = compound: C1=CC=C(C=C1)C2=NC(=C(N2)C3=CC=NC=C3)C4=CC(=C(C=C4)Cl)O
Outline: as §1

[6] = compound: C1=CC=C2C(=C1)C3=NNC4=CC=CC(=C43)C2=O
Outline: as §1

[7] = compound: C1CCN(C1)C(=O)NC2=CC=CC(=C2)NC3=NC=C(C(=N3)NCCC4=CN=CN4)Br
Outline: as §1

[8] = compound: C1CN(CCC1(CC2=CC=C(C=C2)Cl)N)C3=NC=NC4=C3C=CN4
Outline: as §1

IRAK-1-4 Inhibitor I = compound: C1COCCN1CCN2C3=CC=CC=C3N=C2NC(=O)C4=CC(=CC=C4)[N+](=O)[O-] [IRAK-1-4 Inhibitor I]
Outline: as §1

Target | log2 fold change (erlotinib) | log2 fold change [1] | log2 fold change [2] | log2 fold change [3] | log2 fold change [4] | log2 fold change [5] | log2 fold change [6] | log2 fold change [7] | log2 fold change [8] | log2 fold change (IRAK-1-4 Inhibitor I)
RAB4B isoform 2 (UniProt P61018) | inactive: -0.026 | inactive: -0.003 | inactive: -0.007 | inactive: -0.036 | inactive: -0.044 | inactive: 0.022 | inactive: -0.013 | inactive: -0.013 | inactive: -0.021 | inactive: -0.012
PYM1 (UniProt Q9BRP8) | inactive: -0.04 | inactive: -0.002 | inactive: 0.003 | inactive: 0 | inactive: -0.033 | inactive: 0.021 | inactive: -0.005 | inactive: -0.08 | inactive: -0.01 | inactive: 0.057
RAB1A (UniProt P62820) | inactive: -0.059 | inactive: -0.018 | inactive: -0.006 | inactive: -0.008 | inactive: -0.024 | inactive: -0.002 | inactive: 0.024 | inactive: -0.007 | inactive: -0.004 | inactive: -0.009
RAB11FIP4 (UniProt Q86YS3) | inactive: 0.071 | inactive: 0.052 | inactive: -0.067 | inactive: -0.048 | inactive: -0.131 | inactive: -0.042 | inactive: -0.082 | inactive: -0.006 | inactive: 0.004 | inactive: -0.071
RAB13 (UniProt P51153) | inactive: -0.064 | inactive: -0.01 | inactive: -0.04 | inactive: -0.008 | inactive: -0.017 | inactive: -0.051 | inactive: 0.048 | inactive: -0.01 | inactive: -0.137 | inactive: -0.079
RAB22A (UniProt Q9UL26) | inactive: -0.02 | inactive: 0.035 | inactive: 0.022 | inactive: 0.004 | inactive: -0.012 | inactive: -0.041 | inactive: -0.023 | inactive: 0.011 | inactive: 0.013 | inactive: 0.019
RAD21 (UniProt O60216) | inactive: -0.049 | inactive: 0.028 | inactive: -0.032 | inactive: 0.015 | inactive: -0.003 | inactive: 0.019 | inactive: 0.002 | inactive: -0.01 | inactive: -0.001 | inactive: -0.004
RAB6D (UniProt Q53S08) | inactive: 0.027 | inactive: -0.071 | inactive: 0.054 | inactive: -0.025 | inactive: -0.048 | inactive: -0.019 | inactive: 0.044 | inactive: -0.038 | inactive: 0.157 | inactive: 0.003
RABGAP1L isoform 3 (UniProt Q5R372) | inactive: -0.022 | inactive: 0.018 | inactive: 0.026 | inactive: -0.006 | inactive: 0.022 | inactive: 0.02 | inactive: 0.011 | inactive: 0.006 | inactive: -0.008 | inactive: 0.021
RAB11FIP3 isoform 3 (UniProt O75154) | inactive: 0.002 |  | inactive: -0.045 |  |  | inactive: 0.036 |  | inactive: -0.038 | inactive: -0.088 | inactive: -0.102
R3HDM4 (UniProt Q96D70) | inactive: 0.059 | inactive: 0.034 | inactive: -0.025 | inactive: 0.248 |  | inactive: 0.023 | inactive: -0.073 | inactive: 0.056 | inactive: 0.164 | inactive: -0.014
RALGAPB isoform 3 (UniProt Q86X10) |  |  |  |  | inactive: -0.146 |  |  | inactive: -0.119 | inactive: 0 | 
RAB11FIP4 isoform 2 (UniProt Q86YS3) |  |  |  |  |  | inactive: 0.147 |  |  |  | inactive: 0.113
R3HDM2 (UniProt B5MCU0) | inactive: -0.013 |  | inactive: -0.065 |  |  | inactive: 0.112 |  | inactive: -0.014 | inactive: 0.159 | inactive: 0.068
RAD51AP1 (UniProt Q96B01) | inactive: 0.006 |  | inactive: -0.025 |  | inactive: -0.051 | inactive: 0.041 |  | inactive: -0.023 | inactive: 0.11 | inactive: -0.039
RAB30 (UniProt Q15771) | inactive: 0.07 | inactive: -0.162 | inactive: -0.035 | inactive: -0.072 | inactive: -0.087 |  | inactive: -0.034 | inactive: -0.044 | inactive: -0.076 | 
RAC3 (UniProt P60763) | inactive: -0.031 | inactive: 0.135 | inactive: 0.054 | inactive: -0.023 |  |  | inactive: 0.048 | inactive: 0.082 | inactive: 0 | 
QSER1, A0A3B3IRW6 | inactive: -0.056 | inactive: 0.025 | inactive: 0.054 | inactive: -0.057 |  | inactive: -0.006 | inactive: 0.059 | inactive: 0.002 | inactive: -0.046 | inactive: -0.014
RAD54B (UniProt Q9Y620) |  | inactive: -0.269 |  | inactive: -0.039 |  | inactive: -0.059 | inactive: 0.025 | inactive: 0.09 | inactive: 0.037 | inactive: 0.029
NA (UniProt Q4G0T1) | inactive: -0.178 |  | active: 0.348 |  |  | inactive: 0.017 |  |  |  | inactive: 0.002
RAB18 (UniProt Q9NP72) | inactive: -0.116 | inactive: 0.002 | inactive: -0.083 | inactive: -0.005 | inactive: 0.059 |  | inactive: -0.009 | inactive: -0.004 | inactive: -0.071 | 

Another view of some results above.
Target	log2 fold change (erlotinib)	log2 fold change [1]	log2 fold change [2]	log2 fold change [3]	log2 fold change [4]	log2 fold change [5]	log2 fold change [6]	log2 fold change [7]	log2 fold change [8]	log2 fold change (IRAK-1-4 Inhibitor I)
RAB6D (UniProt Q53S08)	inactive: 0.027	inactive: -0.071	inactive: 0.054	inactive: -0.025	inactive: -0.048	inactive: -0.019	inactive: 0.044	inactive: -0.038	inactive: 0.157	inactive: 0.003
RABGAP1L isoform 3 (UniProt Q5R372)	inactive: -0.022	inactive: 0.018	inactive: 0.026	inactive: -0.006	inactive: 0.022	inactive: 0.02	inactive: 0.011	inactive: 0.006	inactive: -0.008	inactive: 0.021
RAB11FIP3 isoform 3 (UniProt O75154)	inactive: 0.002		inactive: -0.045			inactive: 0.036		inactive: -0.038	inactive: -0.088	inactive: -0.102
R3HDM4 (UniProt Q96D70)	inactive: 0.059	inactive: 0.034	inactive: -0.025	inactive: 0.248		inactive: 0.023	inactive: -0.073	inactive: 0.056	inactive: 0.164	inactive: -0.014
RALGAPB isoform 3 (UniProt Q86X10)					inactive: -0.146			inactive: -0.119	inactive: 0	
RAB11FIP4 isoform 2 (UniProt Q86YS3)						inactive: 0.147				inactive: 0.113
R3HDM2 (UniProt B5MCU0)	inactive: -0.013		inactive: -0.065			inactive: 0.112		inactive: -0.014	inactive: 0.159	inactive: 0.068
RAD51AP1 (UniProt Q96B01)	inactive: 0.006		inactive: -0.025		inactive: -0.051	inactive: 0.041		inactive: -0.023	inactive: 0.11	inactive: -0.039
RAB30 (UniProt Q15771)	inactive: 0.07	inactive: -0.162	inactive: -0.035	inactive: -0.072	inactive: -0.087		inactive: -0.034	inactive: -0.044	inactive: -0.076	
RAC3 (UniProt P60763)	inactive: -0.031	inactive: 0.135	inactive: 0.054	inactive: -0.023			inactive: 0.048	inactive: 0.082	inactive: 0	
QSER1, A0A3B3IRW6	inactive: -0.056	inactive: 0.025	inactive: 0.054	inactive: -0.057		inactive: -0.006	inactive: 0.059	inactive: 0.002	inactive: -0.046	inactive: -0.014
RAD54B (UniProt Q9Y620)		inactive: -0.269		inactive: -0.039		inactive: -0.059	inactive: 0.025	inactive: 0.09	inactive: 0.037	inactive: 0.029
NA (UniProt Q4G0T1)	inactive: -0.178		active: 0.348			inactive: 0.017				inactive: 0.002

(cont.)

Target | log2 fold change (erlotinib) | log2 fold change [1] | log2 fold change [2] | log2 fold change [3] | log2 fold change [4] | log2 fold change [5] | log2 fold change [6] | log2 fold change [7] | log2 fold change [8] | log2 fold change (IRAK-1-4 Inhibitor I)
RACK1 (UniProt D6RHH4) |  | inactive: -0.196 |  | inactive: 0 | inactive: -0.174 |  | inactive: 0.087 |  |  | 
PYCARD isoform 2 (UniProt Q9ULZ3) | inactive: -0.15 |  | inactive: -0.098 |  | inactive: 0.089 | inactive: 0.14 |  |  |  | inactive: -0.001
PYGO2 (UniProt Q9BRQ0) | inactive: -0.047 |  | inactive: 0.045 |  | inactive: -0.039 | inactive: 0.115 |  | inactive: 0.012 | inactive: 0.049 | inactive: 0.051
PYCR1 isoform 3 (UniProt P32322) | inactive: -0.008 | inactive: 0.04 |  | inactive: -0.022 |  | inactive: -0.01 | inactive: -0.004 |  | inactive: -0.007 | inactive: 0.014
RANGRF (UniProt Q9HD47) | inactive: -0.182 |  | inactive: 0.116 |  |  | inactive: -0.115 |  |  |  | inactive: 0.056
RAB39B (UniProt Q96DA2) |  |  |  |  | inactive: -0.027 |  |  |  |  | 
PYHIN1 (UniProt Q6K0P9) |  |  |  |  |  | inactive: 0.084 |  |  |  | inactive: -0.137
RAB5IF isoform 5 (UniProt Q9BUV8) | inactive: 0.193 | inactive: 0.021 | inactive: 0.082 | inactive: 0.001 | inactive: -0.052 |  | inactive: -0.036 | inactive: -0.065 | inactive: 0.034 | 
RAI1 (UniProt Q7Z5J4) |  |  |  |  |  |  |  | inactive: -0.159 | inactive: 0.088 | 
RAD54L (UniProt Q92698) | inactive: -0.026 |  | inactive: -0.005 |  | inactive: -0.072 | inactive: -0.071 |  |  |  | inactive: 0.02
RAB29 (UniProt O14966) | inactive: -0.086 |  | inactive: 0.051 |  |  | inactive: 0.043 |  |  |  | inactive: 0.11
RAB3D (UniProt O95716) | inactive: -0.007 | inactive: -0.04 | inactive: -0.076 | inactive: -0.123 |  | inactive: -0.085 | inactive: -0.067 | inactive: -0.207 | inactive: 0.192 | inactive: -0.025
RAB27B (UniProt O00194) | inactive: 0.016 | inactive: 0.19 | inactive: -0.032 | inactive: -0.195 |  |  | inactive: -0.101 | inactive: -0.149 | inactive: 0.09 | 
RACK1 (UniProt D6RF23) |  | inactive: -0.063 |  | inactive: 0 | inactive: -0.039 |  | inactive: -0.126 | inactive: 0 | inactive: -0.099 | 
QSOX1 (UniProt O00391) | inactive: -0.05 |  | inactive: 0.002 |  |  |  |  | inactive: -0.02 | inactive: -0.053 | 
RAB11FIP5, A0A1B0GTL5 | inactive: 0.09 |  | inactive: -0.084 |  |  |  |  |  |  | 
RAP1GDS1 isoform 4 (UniProt P52306) |  |  |  |  | inactive: 0.063 |  |  |  |  | 
RAD17 (UniProt O75943) |  | inactive: 0.005 |  | inactive: -0.1 | inactive: 0.014 | inactive: -0.047 | active: -0.458 | inactive: 0.031 | inactive: 0.019 | inactive: 0.021
RANBP3 isoform 2 (UniProt Q9H6Z4) |  | inactive: -0.103 |  | inactive: -0.148 | inactive: -0.017 | inactive: -0.044 | inactive: -0.058 | inactive: 0.012 | inactive: -0.076 | inactive: 0.023
RAD23A isoform 3 (UniProt P54725) | inactive: 0.085 |  | inactive: 0.158 |  |  | inactive: -0.352 |  |  |  | inactive: 0.042
RAB43 (UniProt Q86YS6) | inactive: 0.088 |  | inactive: 0.043 |  | inactive: -0.065 | inactive: -0.032 |  | inactive: 0.009 | inactive: -0.029 | inactive: -0.062
